Laboratory results: PubChem BioAssay AID1259254 (NCATS, 2017)
Shown is one part, drawn at random, of about 59,000 reagents tested. Over the whole deposit, about 1,550 (2.6%) are marked active. 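G2 share is only a proxy for re-replication; each gene was hit by three separate siRNAs, and active genes were retested.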 Reagents against one gene are numbered here. Further read-outs or replicates are left out here. No sequences are given here. Not stated in the record: the amount of reagent.

Purpose: 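Genome-wide screen for genes that prevent DNA re-replication in cancer cells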 (primary screen)
System: human HCT116 colorectal cancer cells
Knock-down reagent: single siRNA against human genes
Duration: 3 days
Read-out: 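Nuclei stained with Hoechst and imaged; cell-cycle phase assigned by DNA content; G2 share scaled per plate, non-targeting siRNA 0%, GMNN siRNA 100%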
Direction: G2 robust z-score: higher = more G2 cells, more excess DNA replication
Call rule: 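Active siRNAs have a G2 robust z of 5 or more median absolute deviations over the median, which in these data means about 38% or higher of GMNN control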

RIPPLY1 (ripply transcriptional repressor 1) #1 | G2 robust z-score = 0.156; Call = inactive
RIPPLY1 (ripply transcriptional repressor 1) #2 | G2 robust z-score = -0.421; Call = inactive
RIPPLY1 (ripply transcriptional repressor 1) #3 | G2 robust z-score = -0.171; Call = inactive
MAB21L2 (mab-21 like 2) #1 | G2 robust z-score = 12.4; Call = active
MAB21L2 (mab-21 like 2) #2 | G2 robust z-score = -0.773; Call = inactive
MAB21L2 (mab-21 like 2) #3 | G2 robust z-score = -0.339; Call = inactive
TRIM26 (tripartite motif containing 26) #1 | G2 robust z-score = 2.09; Call = inactive
TRIM26 (tripartite motif containing 26) #2 | G2 robust z-score = -0.506; Call = inactive
TRIM26 (tripartite motif containing 26) #3 | G2 robust z-score = -0.418; Call = inactive
LDHA (lactate dehydrogenase A) #1 | G2 robust z-score = 3.07; Call = inactive
LDHA (lactate dehydrogenase A) #2 | G2 robust z-score = 0.175; Call = inactive
LDHA (lactate dehydrogenase A) #3 | G2 robust z-score = -0.356; Call = inactive
ALPP (alkaline phosphatase, placental) #1 | G2 robust z-score = -0.857; Call = inactive
ALPP (alkaline phosphatase, placental) #2 | G2 robust z-score = 2.55; Call = inactive
ALPP (alkaline phosphatase, placental) #3 | G2 robust z-score = 8.05; Call = active
DYNC1I1 (dynein cytoplasmic 1 intermediate chain 1) #1 | G2 robust z-score = 1.1; Call = inactive
DYNC1I1 (dynein cytoplasmic 1 intermediate chain 1) #2 | G2 robust z-score = -0.369; Call = inactive
DYNC1I1 (dynein cytoplasmic 1 intermediate chain 1) #3 | G2 robust z-score = -0.828; Call = inactive
ZNF681 (zinc finger protein 681) #1 | G2 robust z-score = -0.52; Call = inactive
ZNF681 (zinc finger protein 681) #2 | G2 robust z-score = -0.275; Call = inactive
ZNF681 (zinc finger protein 681) #3 | G2 robust z-score = -1.06; Call = inactive
PPP1R18 (protein phosphatase 1 regulatory subunit 18) #1 | G2 robust z-score = -0.502; Call = inactive
PPP1R18 (protein phosphatase 1 regulatory subunit 18) #2 | G2 robust z-score = -0.481; Call = inactive
PPP1R18 (protein phosphatase 1 regulatory subunit 18) #3 | G2 robust z-score = 0.376; Call = inactive

Not a retest: an excerpt of the list.
RIPPLY1 (ripply transcriptional repressor 1) #2 | G2 robust z-score = -0.421; Call = inactive
RIPPLY1 (ripply transcriptional repressor 1) #3 | G2 robust z-score = -0.171; Call = inactive
